Results published in patent US11965161B2, “Methods and compositions for sensitization of tumor cells to immune therapy” (Regeneron Pharmaceuticals, Inc., priority 2020, dated 2024).
For at least one compound, name, drawing or mass did not settle the structure.

Legend:
Type in all cases: cell-based, mouse
MC38 cells [1] = test: TNFα-induced killing of MC38 cells, cell viability (CCK-8); details: MC38 cells pretreated with 200 nM rapamycin, 10 ng/ml TNFα, 24 hours
Description: The effects of TNFα, TRAIL, doxorubicin or paclitaxel on cell viability were assessed following 24 hour incubations at the indicated concentrations. The effects of 5 μM autophinib or SAR-405 on TNFα (10 ng/ml) or TRAIL (10 ng/ml or 50 ng/ml) induced killing were assessed following 24 hour incubations unless otherwise indicated. In all cases, cell viability was measured using CCK8 cell counting kit-8 (CCK-8) reagent, which is reduced by dehydrogenase activities in cells to give a yellow-colored formazan dye (Dojindo). The absorbance was measured using a SpectraMax M3 microplate reader (Molecular Devices).

MC38 cells [2] = test: Western blots of MC38 cell lysates (caspase-8, p62, Iκ-Bα, phospho-S6); details: 200 nM rapamycin
Description: Whole cell lysates were prepared in tris-glycine SDS sample buffer (ThermoFisher) containing 5% 2-mercaptoethanol. Western blotting was performed by conventional techniques using tris-glycine polyacrylamide SDS gels (ThermoFisher) and PVDF membranes (BioRad). Blots were blocked in 5% milk powder and 0.5% Tween-20 in TBS and then incubated overnight with primary antibodies. After addition of secondary antibodies, membranes were incubated with SuperSignal West Pico Plus or Femto substrate (ThermoFisher) and luminescence was captured with a C300 imager (Azure Biosystems). Primary antibodies against TAK1, Rbck1, Re1A p65, Rb1cc1, Atg12, cleaved caspase-8, procaspase-8, RIPK1, RIPK1 phospo-Ser321, RIPK1 phospho-Ser166, Iκ-Bα, A20, p62, phospho-p65, LC3B, TNFR1 (CST), Atg9a (Novus), cIAP1 (Enzo), β2M (ThermoFisher), FADD and ICAM (Abcam) were used. Horseradish peroxidase-conjugated β-Actin antibody and secondary antibodies against mouse IgG, rabbit IgG and goat IgG were from Santa Cruz Biotechnology.

MC38 cells [3] = test: T cell killing assay, Ova-pulsed MC38 cells with OT-1 CD8+ T cells; details: MC38 cells pretreated with rapamycin, Ova peptide, OT-1 T cells, 24 hours

## CO[C@H]1C[C@@H]2CC[C@@H](C)[C@@](O)(O2)C(=O)C(=O)N2CCCC[C@H]2C(=O)O[C@H]([C@H](C)C[C@@H]2CC[C@@H](O)[C@H](OC)C2)CC(=O)[C@H](C)/C=C(\C)[C@@H](O)[C@@H](OC)C(=O)[C@H](C)C[C@H](C)/C=C/C=C/C=C/1C [rapamycin]
MC38 cells [1]
  TNFα-mediated killing: significantly decreased
MC38 cells [2]
  p62 levels: decreased
  phospho-S6 levels: decreased
MC38 cells [3]
  T cell-mediated killing: significantly decreased
